# Experiments:
# [1] = general procedure: Boc solid-phase peptide synthesis; Benzhydrylamine-polystyrene resin; diisopropylcarbodiimide (hydroxybenzotriazole for some residues); conditions: whole synthesis, scale 0.5 mmole
# [2] = general procedure: Boc solid-phase peptide synthesis; Methylbenzhydrylamine-polystyrene resin; diisopropylcarbodiimide (hydroxybenzotriazole for some residues); conditions: whole synthesis, scale 0.73 mmol
Substance,isolated mass [1] [mg],isolated mass [2] [mg]
pGlu-Gln-Trp-Ala-Val-Gly-His-Leuψ[CH2NH]Leu-NH2,60,–
pGlu-Gln-Trp-Ala-Val-Gly-His-Sta-NH2,–,77

# Source: patent US5736517A (Biomeasure, Inc., priority 1993, dated 1998)
